# Laboratory results published in the supplement of paper PMC5407854, “Inhibitor of ppGalNAc-T3-mediated O-glycosylation blocks cancer cell invasiveness and lowers FGF23 levels” (eLife, 2017).
# Several values for one entry are separate records, joined by “and”; a condition that tells them apart may be missing. Equal entries are not always repeated. The full ranking holds about 1,700 compounds; the median of “T2 sensor activation Q score (MG/GFP ratio z-score vs DMSO controls)” is about 0.3, and the highest 2% start at about 1.9. The list shows a part of the results.
# Tested on: ppGalNAc-T2 sensor
# Experiment: T2 sensor activation Q score (MG/GFP ratio z-score vs DMSO controls) (SD units); higher = more sensor activation (inhibition of ppGalNAc-T2 glycosylation)
# Conditions: HEK293 sensor cells; 10 µM; 6 h
# Protocol: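 Cells were treated with compound at 10 uM for 6 h, then MG/GFP ratio was read by flow cytometry (10,000 cells per well, duplicate wells). Q = (R - R_neg)/SD_neg relative to DMSO vehicle controls; the signal rises when the glycosyltransferase is inhibited.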
row,Compound,T2 sensor activation Q score
1,NC(=O)C(=Cc1ccncc1)c1cccc2ccccc12,-0.45
2,OC(c1ccccc1)(c1ccccc1)c1nccn1-c1ccccc1,1
3,c1ccc2c(c1)-c1cccc3cncc-2c13,1.15
4,C=CCSc1n[nH]c(-c2cccs2)n1,0.3
5,COc1ccc(NC(=O)c2cc3ccc4c5ccccc5[nH]c4c3cc2O)cc1,-0.95
6,O=C(c1cccnc1)N1CCN(c2ccccc2Cl)CC1,0.15
7,S=C1N(c2ccccc2)CN(C2CCCCC2)CN1c1ccccc1,0.65
8,CC(C)(C)N1CCC1CN (centres undefined),1.2
9,N#CC1=CC2CN(Cc3ccccc3)C1C1C(=O)N(c3ccccc3)C(=O)C21 (centres undefined),0.3
10,COc1cc(C(=O)OC(C)CN2CCOCC2)cc(OC)c1OC (centres undefined),-0.05
11,Cc1nc2ccccc2nc1N1CCCC1,1.5
12,O=S(=O)(O)c1ccc(N=Nc2ccccc2)cc1,-0.35
13,CN(C)S(=O)(=O)c1ccccc1N=C=S,-0.4
14,NCCN1CCNCC1,0.45
15,O=c1c(-c2ccc(O)cc2)coc2cc(O)cc(O)c12,0.15
16,Cc1cc(NC(=O)c2ccccc2)nc(C)n1,1.15
17,Nc1ccc(N=Nc2ccccc2Cl)c(N)n1,1.55
18,COc1ccc(C(=O)O)nc1C,-0.4
19,CC1=CN2C(c3cccc([N+](=O)[O-])c3)=NON(c3ccc(C)cn3)C2C=C1 (centres undefined),0.85
20,c1ccc(-c2cc3ccccc3[nH]2)cc1,0.85
21,Cc1ccc(S(=O)(=O)NC(=O)Nc2nccs2)cc1,-1.2
22,COc1cc2c(c3c1c(=O)c1cccc(F)c1n3C)C=CC(C)(C)O2,-1.8
23,Nc1ccc(NC(=S)Nc2ccccc2)cc1,1.4
24,FC(F)(F)c1nc2nc(Cl)c(Cl)nc2n1CCCN1CCOCC1,0.25
25,COc1ccccc1C1OC2=C(Nc3ccc([N+](=O)[O-])cc3N2)C1=O (centres undefined),-0.65
26,CCNc1nn2ccccc2c1C=C(C#N)C(=O)OCC,0.55

row,Compound,T2 sensor activation Q score
1,O=C(Cn1ccc(=O)[nH]c1=O)Nc1nccs1,-0.4
2,COc1ccc(/C(C#N)=C/c2cccnc2)cc1,1.55
3,CC(C)(C)CC(C)(C)N1CNC(=S)NC1,0.45
4,O=C(Nc1csnn1)c1csnn1,0.2
5,CCc1c2c(nc3ccc(OC(=O)N4CCC(N5CCCCC5)CC4)cc13)-c1cc3c(c(=O)n1C2)COC(=O)[C@]3(O)CC,0.5
6,Cn1[nH]cc(/C=N/C(N)=O)c1=O,-0.15
7,Nc1ccc2c(c1)Cc1cc(Cl)c(Cl)cc1-2,0.5
8,O=C(O)CCNC1CCCCC1,-0.6
9,NC(=O)c1ccccc1NC(=O)COc1ccc(Cl)cc1,-0.45
10,S=c1c2[nH]cnc2ncn1CCSc1ncnc2nc[nH]c12,1.7
11,O=C(NC(=S)Nc1cc(Cl)ccc1O)c1cccc(Br)c1,-0.15
12,COC1C(=O)CCC2(CO2)C1(O)C1(C)OC1CC=C(C)C (centres undefined),0
13,Cc1cn(C2CC(O)C(CO)O2)c(=O)n(Cc2ccccc2)c1=O (centres undefined),0.85
14,CSc1nc(=S)c2[nH]c(=S)[nH]c2[nH]1,-0.9
15,Cc1cnc2cc(Cl)ccc2c1SCC(=O)O,1.05
16,CCC1=C[C@@H]2CN(C1)Cc1c([nH]c3ccccc13)[C@@](C(=O)OC)(c1cc3c(cc1OC)N(C)[C@H]1[C@@](O)(C(=O)OC)[C@H](OC(C)=O)[C@]4(CC)C=CCN5CC[C@]31[C@@H]54)C2,1.1
17,CC(C)(C)n1nc(C2CC2)cc1NC(=O)Nc1ccc(Cl)cc1,-0.9
18,CC(C)(C(N)=O)c1ccccc1,1.25
19,CSc1nsc(NN)n1,-0.1
20,NC(=NOC(=O)c1ccccc1)C(Cc1ccccc1)C(=O)NOC(=O)c1ccccc1 (centres undefined),-0.25
21,NCC(=O)c1cccc2ccc[n+]([O-])c12,0.05
22,CC(C)CC(NC(=O)OCc1ccccc1)C(=O)NC(Cc1c[nH]c2ccccc12)C(=O)O (centres undefined),0
23,N.N.O=C([O-])C1(C(=O)[O-])CCC1.[Pt+2],0.2
24,Cc1cc2c(cc1C)N(C(=O)CCl)CC(=O)N2,0.5
25,CC1(c2ccccc2)O[C@@H]2C[C@H]3[C@@H]4CCC5=CC(=O)C=C[C@]5(C)[C@@]4(F)[C@@H](O)C[C@]3(C)[C@]2(C(=O)CO)O1 (some centres undefined),1.3
26,O=c1n(CC2CO2)c(=O)n(CC2CO2)c(=O)n1CC1CO1 (centres undefined),-0.15

row,Compound,T2 sensor activation Q score
1,O=[N+]([O-])C1C(c2ccccc2)C12c1ccccc1-c1ccccc12 (centres undefined),-0.65
2,Cc1cc2c(cc1C)NC1=C(N2)OC(c2cccc(O)c2)C1=O (centres undefined),-0.85
3,COc1ccccc1/C=C1\Cc2ccccc2C1=O,0.7
4,O=C(O)C1CCC(=O)N1C(=O)OCc1ccccc1 (centres undefined),-0.1
5,O=C(Nc1ccc(Cl)c(Cl)c1)Nc1ccccc1O,-0.7
6,O=[N+]([O-])c1ccc(NN=C(c2ccccc2)c2ccccc2)nc1,1.5
7,CC(NC(=O)c1ccc(Cl)c(Cl)c1)c1ccc(-c2ccccc2)cc1 (centres undefined),-0.2
8,N#C/C(=C\c1ccc(C#N)cc1)C(=O)c1ccccc1,0.6
9,O=c1[nH]c(=O)n([C@H]2C[C@H](O)[C@@H](CO)O2)cc1F,0.45
10,CC1=CC(=O)C(C(C)=Nc2ccccc2Cl)C(=O)O1 (centres undefined),0.1
11,CNNCc1ccc(C(=O)NC(C)C)cc1,-0.95
12,Cc1ccc(C)c(N2CCN(c3ccncc3N)CC2)c1,-0.3
13,OCC1(CO)COC2(CCCC2)N1,-0.05
14,O=C1CCC(NC(=O)c2ccccc2)C(=O)N1 (centres undefined),1.75
15,Nc1cc(=O)[nH]c2ncnn12,0.75
16,N#C/C(=C\c1c[nH]c2ccccc12)C(N)=O,0.8
17,NS(=O)(=O)c1ccc(Cl)cc1[N+](=O)[O-],0.4
18,Nc1ncnc(N2CCOCC2)n1,-0.6
19,CCn1c2ccccc2c2cc(NC(=O)Nc3ccc([N+](=O)[O-])cc3C)ccc21,0.5
20,CN(C)c1nc(=Nc2cccc(Cl)c2)ss1,-1.05
21,O=C1COc2c1ccc(O)c2O,0.6
22,CSc1nc(N)c(C(=O)Nc2ccc([N+](=O)[O-])cc2)s1,0.05
23,O=C(Nc1cccc2ccccc12)c1ccccc1,-0.3
24,CN(C)c1ncnc2c1ncn2-c1ccccc1,0.3
25,Nc1ncncc1-c1ccc2ccccc2c1,0.3
26,CCOC(=O)/C(C#N)=C1\SS/C(=C(/C#N)C(=O)OCC)S1,0.9

row,Compound,T2 sensor activation Q score
1,Nc1ccc(NC(=O)Nc2ccc(N)cc2)cc1,0.2
2,Nc1nc(N)c2c(ccc3nccc32)[nH]1,1.3
3,OC(COc1cccc2ccccc12)CN1CCN(c2ccc(Cl)cc2)CC1 (centres undefined),1.05 and 0.75
4,CCOC(=O)/C(C#N)=C/c1cccc(C)c1,-0.35
5,O=C(Cn1nnc(N2CCCCC2)n1)N/N=C/c1ccccc1O,0.15
6,Cn1c(=O)c2c(nc(N3CCCCC3)n2C)n(C)c1=O,-0.7
7,O=S1(=O)CCC(N(N=Cc2ccco2)c2ccccc2)C1 (centres undefined),-0.2
8,Cn1nc(N)c2ncc(C(Cl)(Cl)Cl)nc21,-0.55
9,O=C(CCCCCCC(=O)Nc1ccccc1)NO,-1.9
10,CC(C)(C)CC(C)(C)n1nnnc1N,1.15
11,Cc1c2cc[n+](CCN3CCCCC3)cc2c(C)c2c1[nH]c1ccc(O)cc12,-0.55
12,Oc1cc(-n2cccn2)c(O)cc1-n1cccn1,0.9
13,O=[N+]([O-])/C=C/c1cc2ccccc2[nH]1,-1
14,COc1ccc2nccc(/C=C/c3ccnc4ccc(OC)cc34)c2c1,1
15,O=C(NC(=S)Nc1cccc(O)c1)c1ccco1,-0.1
16,CCCCOP(=O)(OCCCC)C1(C)CC(=O)CC(C)(C)C1 (centres undefined),-0.65
17,c1cc(-n2nnc3cnccc32)ccn1,-0.75
18,COc1ccc(NC(=O)CC(C)=O)c(OC)c1,0.8
19,O=C(Nc1ccc(C2=NCCN2)cc1)c1ccc(Cl)c(C(=O)Nc2ccc(C3=NCCN3)cc2)c1,0.45
20,Cc1c(COC(=O)NC(C)C)c(COC(=O)NC(C)C)c2n1CS(=O)(=O)C2,-0.4
21,CC(=O)Nc1c(C)cc(OCC(=O)O)cc1C,-0.05
22,O=c1cc2c(=O)oc3cc(O)c(O)oc3c2c(O)c1O,1.85
23,NC(=S)Nc1cccc(Cl)c1,-0.35
24,C1=CC2(C=C1)OC21CCC2(C=CC3(C2)OC3C2CCCCC2)CC1 (centres undefined),0.75
25,O=NN(CCCl)C(=O)NCCCl,-1.55
26,COc1ccc(/C=C2/CCOC2=O)cc1,-1.7

row,Compound,T2 sensor activation Q score
1,O=C(O)C(c1ccccc1)C1(O)CCCCC1 (centres undefined),0.9
2,Cc1[nH]c(=O)n(C(C)C)c(=O)c1Br,0.6
3,O=c1[nH]c(C(F)(F)C(F)(F)C(F)(F)F)no1,-0.3
4,CCCCN1CCNC1=S,-0.45
5,CC(C)(C)NC(=O)c1ccc(C(=O)NC(C)(C)C)cc1,-0.95
6,Nc1nc(N)nc(C2C=CCCC2)n1 (centres undefined),1.8
7,COC(=O)c1cncc(C)c1,-1
8,CC1=C(O)C(=O)C(c2c(C)cc(C)c(Br)c2C)=C(O)C1=O,1.25
9,O=S(=O)(O)c1ccc2c(c1)C(C(Cl)(Cl)Cl)OC(C(Cl)(Cl)Cl)O2 (centres undefined),0.1
10,NC(=O)c1ccc(Oc2ccc(C(N)=O)cc2)cc1,1.85
11,N#CC1C(=O)NC(=O)C(C#N)C12CCCC(C(F)(F)F)C2 (centres undefined),0.45
12,CCC(C)c1c(N)n(S(=O)(=O)c2ccc(C)cc2)oc1=O (centres undefined),1.05
13,CCCCOc1ccc(NC(=O)Nc2nnc(C)s2)cc1,0.05
14,CCOC(=O)c1nc(SC)n(C)c1C(=O)OCC,0.5
15,COc1cc(NC(=O)c2cc3ccccc3cc2O)c(OC)cc1Cl,1.15
16,O=C(O)C(Cc1c[nH]c2ccccc12)N1C(=O)c2ccccc2C1=O (centres undefined),1.2
17,Clc1cc2c(nn1)Nc1ccccc1S2,-0.35
18,CC(C)(C)NC1=NCCNC(c2ccccc2)=C1,-0.95
19,c1ccc(NN(Cc2ccncc2)c2ccccc2)cc1,0.95
20,O=C(CN1CCOCC1)N1CCOCC1,-0.35
21,CCCCCC(=O)C(=O)c1ccc(O)cc1O,-0.75
22,O=S1(=O)CCN(Cc2ccccn2)CC1,0.85
23,Cc1ccc(-n2nnnc2-c2cccnc2)cc1,1.5
24,COc1ccc([N+](=O)[O-])cc1NC(=O)N(C)Cc1ccco1,1.2
25,CC1(C)CC2(C)OC2C2(C1)N=NC(=Nc1ccccc1)O2 (centres undefined),0.3

# A draw from above in order of molecular weight, rising.
row,Compound,T2 sensor activation Q score
7,COC(=O)c1cncc(C)c1,-1
14,CCOC(=O)c1nc(SC)n(C)c1C(=O)OCC,0.5
11,N#CC1C(=O)NC(=O)C(C#N)C12CCCC(C(F)(F)F)C2 (centres undefined),0.45
13,CCCCOc1ccc(NC(=O)Nc2nnc(C)s2)cc1,0.05

# Among those listed so far, 3 have bromine.
row,Compound,T2 sensor activation Q score
11,O=C(NC(=S)Nc1cc(Cl)ccc1O)c1cccc(Br)c1,-0.15
2,Cc1[nH]c(=O)n(C(C)C)c(=O)c1Br,0.6
8,CC1=C(O)C(=O)C(c2c(C)cc(C)c(Br)c2C)=C(O)C1=O,1.25
